The values below come from PubChem BioAssay AID2685 (National Center for Advancing Translational Sciences (NCATS), 2010).

The list shows a part of the results. Shown are side measurements of this screen, not its main read-out; they come without a call. Compounds called inactive in the main read-out are mostly missing here. Words in brackets tell the shape of the fitted curve; partial curves, single points and poor fits give uncertain potencies.

This experiment is described as follows: qHTS Assay for Lipid Storage Modulators in Drosophila S3 Cells.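 As to cell number change: cells counted by Cell Tracker Red CMTPX staining in the red channel.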 The conditions noted are these: BODIPY lipid droplet fluorescence, 18-24 h; for cell number change: measured here: cell count max response, cells fed with added oleic acid. In outline: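 Drosophila S3 cells loaded with oleic acid (400 uM, as added) and compounds at several concentrations; lipid droplets imaged by 488-nm laser-scanning cytometry, 500–530 nm intensity and object ratio to cell channel. Percent activity normalized to 20 uM Triacsin C.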

[1] abbreviates: measured here: cell number channel AC50, cells fed with added oleic acid.
Where [2] appears, read: measured here: lipid fluorescence (Fed channel) AC50, cells fed with added oleic acid.

In the case of `CC(C)NC(=O)CSc1ccccc1C(=O)NCc1ccc2c(c1)OCO2`, the concentration at half-maximal activity (AC50) under setting [1] is 2.31 µM [rising, partial curve] and the AC50 under setting [2] is 0.116 µM [rising, full curve, poor fit]. For `CC(NC(=O)c1cc(-c2ccncc2)nc2ccc(Cl)cc12)C1CCCO1` (stereo not drawn), the cell number change is -22.3%. Moreover, under setting [2], the AC50 was 29.1 µM [falling, single point]. Consider `N#C/C(=N\Nc1cccc(C(F)(F)F)c1)C(=O)c1ccsc1`, for which the cell number change is -35.7%. Also, the concentration at half-maximal activity (AC50) under setting [1] is 13 µM [falling, partial curve]. Under setting [2], the half-maximal activity concentration (AC50) is 14.6 µM [falling, partial curve]. Turning to `COc1ccc(-c2[nH]ncc2CN(Cc2nccn2C)C(C)C)c(F)c1`, the cell number change is -9.35%. The AC50 under setting [2] is 4.11 µM [falling, single point]. With `COC(=O)CSc1nnc(-c2ccccc2O)n1-c1ccc(C)cc1`, the cell number change was -1.94%.

As for `Cc1cc(C)cc(C(=O)NCC(=O)NNC(=O)CSc2ccccc2F)c1`, the cell number change amounted to 0.208%. Besides, the AC50 under setting [2] is 6.51 µM [falling, single point]. As for `COC(=O)COC(=O)c1ccccc1NC(=O)c1ccccc1`, the cell number change was -33.3%. Further, the AC50 under setting [1] is 3.26 µM [rising, partial curve]. Further, the AC50 under setting [2] was 6.51 µM [rising, partial curve].

As for `COc1ccccc1CN(Cc1cc2cc(C)ccc2[nH]c1=O)Cc1nnnn1CC1CCCO1` (stereo not drawn), the cell number change is -17.5%. As to `CCCc1cc2c(=O)c(-c3ccc4c(c3)OCCO4)c(C)oc2cc1OS(C)(=O)=O`, the AC50 under setting [2] was 0.461 µM [rising, single point].

In the case of `Cc1nc(-c2ccccc2)sc1C(=O)/C=C/c1ccccc1`, the cell number change was -31.2%. Under setting [1], the half-maximal activity concentration (AC50) was 1.46 µM [falling, partial curve, poor fit]. For `Cc1sc2ncnc(NCc3cccs3)c2c1C`, the cell number change came out at 3.61%. Same read-out and setting: in the case of `Cc1cccc(NC(=O)CN2CCCN(S(=O)(=O)c3ccc(Br)s3)CC2)c1` it was -8.65%.

Consider `COc1ccc(OC)c2sc(N3CCCCC3)nc12`, for which, under setting [1], the half-maximal activity concentration (AC50) is 0.231 µM [falling, full curve, poor fit]. As to `CC(C)(c1ccccc1)c1ccc(OCCN)cc1`, the cell number change turned out to be 69.7%. Besides, the AC50 under setting [1] was 14.6 µM [rising, partial curve, poor fit]. Take `CCOc1ccccc1CNS(=O)(=O)c1ccc2[nH]c(=O)sc2c1`: the cell number change is -18.6%. Also, the AC50 under setting [2] is 29.1 µM [falling, single point]. With `Cc1ccccc1NC(=O)COC(=O)COc1ccc2c(c1)CCC2`, the cell number change turned out to be 25%.

As for `COc1ccccc1NC(=O)CSc1ncnc2c1oc1ccccc12`, the cell number change was -3.4%. Further, under setting [2], the half-maximal activity concentration (AC50) was 0.731 µM [rising, full curve, poor fit]. Turning to `CCN(c1ccccc1)S(=O)(=O)c1ccc(OCc2c(C)noc2C)cc1`, the cell number change was found to be 51.4%. Moreover, the half-maximal activity concentration (AC50) under setting [1] is 10.3 µM [rising, partial curve, poor fit]. Besides, under setting [2], the half-maximal activity concentration (AC50) is 0.231 µM [rising, full curve, poor fit].

`CCCn1c2c(c(O)c(C(=O)Nc3ccccc3)c1=O)CCCC2`: the cell number change is -42.7%. Also, under setting [1], the AC50 is 29.1 µM [falling, single point]. Further, the AC50 under setting [2] was 20.6 µM [rising, single point]. Take `CN1C(=O)[C@H]2[C@@H](C3CC3)N3C(=O)CN(CCO)C(=O)[C@@]3(Cc3ccccc3)[C@H]2C1=O`: the cell number change came to 27.5%. The AC50 under setting [2] is 0.146 µM [rising, full curve, poor fit]. For the compound `COc1ccc2c(c1)CC/C(=C\c1ccc(OC)c(Cn3cccn3)c1)C2=O`, the AC50 was 1.64 µM [rising, partial curve] under setting [1] and 6.51 µM [rising, single point] under setting [2]. As for `Cc1ccc(C(=O)Nc2cccc(-c3ccc(N4CCOCC4)nn3)c2)cc1[N+](=O)[O-]`, the concentration at half-maximal activity (AC50) under setting [2] is 1.3 µM [rising, partial curve]. For the compound `CC(C)C(=O)Nc1ccc(-c2nnc(-c3ccccc3)o2)cc1`, the cell number change was -2.84%. On to `Cc1cccc(CSc2cccc3cccnc23)c1`, for which the cell number change was -23.8%. Also, the AC50 under setting [1] was 1.64 µM [falling, full curve, poor fit]. In addition, the half-maximal activity concentration (AC50) under setting [2] is 3.66 µM [falling, partial curve]. On to `COc1ccc(S(=O)(=O)N2CCC(C(=O)N3CCc4ccccc4C3)CC2)cc1`, for which the cell number change is 2.84%. Moreover, the AC50 under setting [2] was 6.51 µM [rising, single point]. `COc1ccc(Cl)cc1NC(=O)CN(C)Cc1ccc(OC)c(OC)c1`: the cell number change amounted to 110%. Further, the half-maximal activity concentration (AC50) under setting [1] is 16.4 µM [rising, single point]. On to `COc1ccc(NC(=O)/C(C#N)=C/c2c(C)nn(-c3ccc(F)cc3)c2Cl)cc1Cl`, for which the cell number change is 36.1%. The concentration at half-maximal activity (AC50) under setting [2] is 29.1 µM [rising, single point].

Regarding `CCOc1ncccc1C(=O)OCC(=O)NCCc1ccccc1`, the cell number change worked out at 77.1%. Under setting [1], the AC50 is 14.6 µM [rising, partial curve]. Besides, the AC50 under setting [2] was 16.4 µM [rising, partial curve].

Consider `Cc1noc2ncnc(Sc3ccc(Br)cc3)c12`, for which the cell number change is -66.1%. For the same compound, the AC50 under setting [1] is 17.8 µM [falling, single point]. Moreover, the concentration at half-maximal activity (AC50) under setting [2] was 20 µM [falling, partial curve]. With `CC(=O)c1cccc(NC(=S)NNC(=O)c2ccco2)c1`, the cell number change came to 2.55%. For the same compound, under setting [2], the half-maximal activity concentration (AC50) is 3.26 µM [rising, full curve].

As to `CC(C)C[C@H]1CN=C(Nc2ccccc2)N1CCC(C)c1ccccc1` (stereo partly drawn), the cell number change was 17.2%. Moreover, the half-maximal activity concentration (AC50) under setting [2] was 1.84 µM [falling, partial curve, poor fit]. Turning to `COc1ccccc1C1C(C#N)=C(N)Oc2cc(C)n(Cc3ccccn3)c(=O)c21` (stereo not drawn), the cell number change was 65.9%. Moreover, the AC50 under setting [1] was 1.3 µM [rising, full curve]. Further, the AC50 under setting [2] was 4.61 µM [rising, single point].

As to `Cc1cc(/C=C2\C(=N)N3C(SCc4ccccc4)=NSC3=NC2=O)c(C)n1Cc1ccccc1`, the cell number change was -41.4%. The AC50 under setting [1] is 2.31 µM [falling, full curve]. Under setting [2], the AC50 is 29.1 µM [falling, single point]. Take `O=C(COC(=O)CCNS(=O)(=O)c1ccc(Cl)cc1)Nc1ccccc1OC(F)F`: the AC50 under setting [2] was 18.4 µM [rising, single point]. With `CCCCCn1nc(C)c(/C=N/NC(=O)c2ccoc2C)c1C`, the cell number change was -19.5%. For the same compound, the concentration at half-maximal activity (AC50) under setting [2] is 11.6 µM [falling, partial curve]. In the case of `CC(C)NC(=O)CN1CCC(c2nc3ccccc3[nH]2)CC1`, the cell number change was -9.07%. On to `Clc1ccc(-c2csc(N/N=C/c3cccnc3)n2)c(Cl)c1`, for which the cell number change was -11.5%. Also, under setting [1], the half-maximal activity concentration (AC50) is 5.8 µM [rising, single point]. Further, the concentration at half-maximal activity (AC50) under setting [2] is 2.91 µM [rising, partial curve].
